Molecular target: T1, 3H-spiperone binding sites in the brain (calf brain striatal tissue) (Bos taurus, UniProt P20288)
T1 construct: fresh calf brain striatal tissue was homogenized; from tissue; host or cells: calf brain striatal membranes
Test: inhibition of specific 3H-spiperone binding in calf brain striatal tissue

Protein sequences, listed by entry. Tags and fused reporters are not part of them.
UniProt P20288, whole entry: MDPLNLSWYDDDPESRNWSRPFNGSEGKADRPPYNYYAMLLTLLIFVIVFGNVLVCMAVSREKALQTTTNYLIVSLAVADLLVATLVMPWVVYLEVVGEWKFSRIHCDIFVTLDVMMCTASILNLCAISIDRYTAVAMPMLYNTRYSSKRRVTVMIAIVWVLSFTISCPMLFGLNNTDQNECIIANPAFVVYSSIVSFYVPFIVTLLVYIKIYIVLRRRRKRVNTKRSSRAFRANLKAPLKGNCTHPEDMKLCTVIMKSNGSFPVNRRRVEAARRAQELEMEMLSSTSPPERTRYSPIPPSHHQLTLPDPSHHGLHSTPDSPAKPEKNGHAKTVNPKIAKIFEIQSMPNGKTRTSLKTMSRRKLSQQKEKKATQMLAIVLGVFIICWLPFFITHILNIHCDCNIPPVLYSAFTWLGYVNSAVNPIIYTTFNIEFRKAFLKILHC

Which IC50 does the source give for `CSc1ccc2c(c1)N(CCC1CCCCN1C)c1ccccc1S2` (stereo not shown) [thioridazine, reference compound] here?
Its IC50 is 33 nM.

Source: patent US4673674A, “Diazepinoindoles useful for treating depression, schizophrenia, social withdrawal or anxiety and pharmaceutical compositions containing them” (Sandoz Pharmaceuticals Corp., priority 1984, dated 1987)
